According to publication PMC8259991, “Transgenerational inheritance of centromere identity requires the CENP-A N-terminal tail in the C. elegans maternal germ line” (PLoS Biology, 2021):
Results are given in words; binding and its absence hold for the method and conditions named. For some assays here: Binding can be weak; no strength is given. Where a sequence is shown, tags or fusion partners need not be part of it. Values belong to the binder of their own block, whether it stands above or below them.

Legend:
[1] = target: CENP-A N-terminal tail, yeast two-hybrid DNA-binding domain fusion (C. elegans); assay: two-hybrid; GAL4-based system, yeast strain MAV203; KNL-2 cDNA fragments in pDEST22 (activation domain), CENP-A cDNA fragments in pDEST32 (DNA binding domain); growth on SD-LTH with 5 mM 3AT
[2] = target: CENP-A histone fold domain (HFD), yeast two-hybrid DNA-binding domain fusion (C. elegans); assay: as above

B1: KNL-2 N-terminal region (aa 1-268), yeast two-hybrid activation domain fusion (domain or fragment, UniProt O44548 1-268)
chain: MGDTEIVPLRVQNVLDSEIIRLNLWSMKFNATSFKLEGFVRNEEGTMMQKVCSEFICRRFTSTLLFDVSGRFFDLVGQIDREYQQKMGMPSRIIDEFSNGIPENWADLIYSCMSANQRSALRPIQQAPKEPIRTRTEPIVTLADETELTGGCQKNSENEKERNRREREEQQTKERERRLEEEKQRRDAEAEAERRRKEEEELEEANYTLRAPKSQNGEPITPIRFTRGHDNGGAKKVFIFEQTPVRKQGPIASSTPQQKQRLADGANN
binding [1]: no binding

B4: KNL-2 C-terminal region (aa 471-877), yeast two-hybrid activation domain fusion (domain or fragment, UniProt O44548 471-877)
chain: GPRDYNDYGRRRNHANSRSGEDEEKLNAIVRREKELRNRLQKSQKASSSSYRHRSNSSDAEESLNEWDIENQELLDNSMMFGDGIPKRSNARKDKFVKKQATRSKPANSTKSPAQARKKKRASLEDNRDLNDSIACNRPRRSCVTPVAKKITWRKQDLDRLKRVIALKKPSASDADWTEVLRLLAKEGVVEPEVVRQIAITRLKWVEPEQNEEVLKQVEEVEQKRRRGAVARVKENVKMHEELREGGNHRAEDLQSGVESMEDYQPEDVAADQSLLALRTPIVTKKRGGTRASIMPKPVEDSPMSRGNNSTFNSPRLEQTKAKDIETNFKYVQHLSMMQARPSSRLKKSSSMNNSTYRGNKNTSISLEKGTQKALKIINRGTTIHEDDENEDNDDDDDMREEDTSIY
binding [1]: no binding

The remaining lines, values ahead:

binding [2]: no binding
binding [1]: binds
B2: full-length KNL-2, yeast two-hybrid activation domain fusion (protein, UniProt O44548 1-877)
chain: MGDTEIVPLRVQNVLDSEIIRLNLWSMKFNATSFKLEGFVRNEEGTMMQKVCSEFICRRFTSTLLFDVSGRFFDLVGQIDREYQQKMGMPSRIIDEFSNGIPENWADLIYSCMSANQRSALRPIQQAPKEPIRTRTEPIVTLADETELTGGCQKNSENEKERNRREREEQQTKERERRLEEEKQRRDAEAEAERRRKEEEELEEANYTLRAPKSQNGEPITPIRFTRGHDNGGAKKVFIFEQTPVRKQGPIASSTPQQKQRLADGANNQIPPTQKSQDSVQAVQPPPPRPAARNAQFASDADLFAVPKAPPSKSVRNLAASNVDIFADVDSVLDTFHFESTPGRVRKPGRRNVSSPSPEPRHRSSSRDGYEQSRYSQRYEHDNSRWSRHNATYRRHEDESRMSRKRSIVRDDFEYSRRHDDGARRRDYYDADIQGDSKRYRGRDASSSSGRSVRFEEEHRRHGDEYRDPRGPRDYNDYGRRRNHANSRSGEDEEKLNAIVRREKELRNRLQKSQKASSSSYRHRSNSSDAEESLNEWDIENQELLDNSMMFGDGIPKRSNARKDKFVKKQATRSKPANSTKSPAQARKKKRASLEDNRDLNDSIACNRPRRSCVTPVAKKITWRKQDLDRLKRVIALKKPSASDADWTEVLRLLAKEGVVEPEVVRQIAITRLKWVEPEQNEEVLKQVEEVEQKRRRGAVARVKENVKMHEELREGGNHRAEDLQSGVESMEDYQPEDVAADQSLLALRTPIVTKKRGGTRASIMPKPVEDSPMSRGNNSTFNSPRLEQTKAKDIETNFKYVQHLSMMQARPSSRLKKSSSMNNSTYRGNKNTSISLEKGTQKALKIINRGTTIHEDDENEDNDDDDDMREEDTSIY

binding [1]: binds
B3: KNL-2 central region (aa 269-470), yeast two-hybrid activation domain fusion (domain or fragment, UniProt O44548 269-470)
chain: QIPPTQKSQDSVQAVQPPPPRPAARNAQFASDADLFAVPKAPPSKSVRNLAASNVDIFADVDSVLDTFHFESTPGRVRKPGRRNVSSPSPEPRHRSSSRDGYEQSRYSQRYEHDNSRWSRHNATYRRHEDESRMSRKRSIVRDDFEYSRRHDDGARRRDYYDADIQGDSKRYRGRDASSSSGRSVRFEEEHRRHGDEYRDPR
